Data published in publication doi:10.1101/2022.03.15.484378.
These are yes or no findings as the source states them, for the method shown. In cells and extracts the contact can be indirect. A yes stands for co-enrichment or nearness to the bait. Other partners may have been found.

Protein sequences, listed by entry. Tags and fused reporters are not part of them. Residues count along the entry.
UniProt Q01705, residues 19-2531: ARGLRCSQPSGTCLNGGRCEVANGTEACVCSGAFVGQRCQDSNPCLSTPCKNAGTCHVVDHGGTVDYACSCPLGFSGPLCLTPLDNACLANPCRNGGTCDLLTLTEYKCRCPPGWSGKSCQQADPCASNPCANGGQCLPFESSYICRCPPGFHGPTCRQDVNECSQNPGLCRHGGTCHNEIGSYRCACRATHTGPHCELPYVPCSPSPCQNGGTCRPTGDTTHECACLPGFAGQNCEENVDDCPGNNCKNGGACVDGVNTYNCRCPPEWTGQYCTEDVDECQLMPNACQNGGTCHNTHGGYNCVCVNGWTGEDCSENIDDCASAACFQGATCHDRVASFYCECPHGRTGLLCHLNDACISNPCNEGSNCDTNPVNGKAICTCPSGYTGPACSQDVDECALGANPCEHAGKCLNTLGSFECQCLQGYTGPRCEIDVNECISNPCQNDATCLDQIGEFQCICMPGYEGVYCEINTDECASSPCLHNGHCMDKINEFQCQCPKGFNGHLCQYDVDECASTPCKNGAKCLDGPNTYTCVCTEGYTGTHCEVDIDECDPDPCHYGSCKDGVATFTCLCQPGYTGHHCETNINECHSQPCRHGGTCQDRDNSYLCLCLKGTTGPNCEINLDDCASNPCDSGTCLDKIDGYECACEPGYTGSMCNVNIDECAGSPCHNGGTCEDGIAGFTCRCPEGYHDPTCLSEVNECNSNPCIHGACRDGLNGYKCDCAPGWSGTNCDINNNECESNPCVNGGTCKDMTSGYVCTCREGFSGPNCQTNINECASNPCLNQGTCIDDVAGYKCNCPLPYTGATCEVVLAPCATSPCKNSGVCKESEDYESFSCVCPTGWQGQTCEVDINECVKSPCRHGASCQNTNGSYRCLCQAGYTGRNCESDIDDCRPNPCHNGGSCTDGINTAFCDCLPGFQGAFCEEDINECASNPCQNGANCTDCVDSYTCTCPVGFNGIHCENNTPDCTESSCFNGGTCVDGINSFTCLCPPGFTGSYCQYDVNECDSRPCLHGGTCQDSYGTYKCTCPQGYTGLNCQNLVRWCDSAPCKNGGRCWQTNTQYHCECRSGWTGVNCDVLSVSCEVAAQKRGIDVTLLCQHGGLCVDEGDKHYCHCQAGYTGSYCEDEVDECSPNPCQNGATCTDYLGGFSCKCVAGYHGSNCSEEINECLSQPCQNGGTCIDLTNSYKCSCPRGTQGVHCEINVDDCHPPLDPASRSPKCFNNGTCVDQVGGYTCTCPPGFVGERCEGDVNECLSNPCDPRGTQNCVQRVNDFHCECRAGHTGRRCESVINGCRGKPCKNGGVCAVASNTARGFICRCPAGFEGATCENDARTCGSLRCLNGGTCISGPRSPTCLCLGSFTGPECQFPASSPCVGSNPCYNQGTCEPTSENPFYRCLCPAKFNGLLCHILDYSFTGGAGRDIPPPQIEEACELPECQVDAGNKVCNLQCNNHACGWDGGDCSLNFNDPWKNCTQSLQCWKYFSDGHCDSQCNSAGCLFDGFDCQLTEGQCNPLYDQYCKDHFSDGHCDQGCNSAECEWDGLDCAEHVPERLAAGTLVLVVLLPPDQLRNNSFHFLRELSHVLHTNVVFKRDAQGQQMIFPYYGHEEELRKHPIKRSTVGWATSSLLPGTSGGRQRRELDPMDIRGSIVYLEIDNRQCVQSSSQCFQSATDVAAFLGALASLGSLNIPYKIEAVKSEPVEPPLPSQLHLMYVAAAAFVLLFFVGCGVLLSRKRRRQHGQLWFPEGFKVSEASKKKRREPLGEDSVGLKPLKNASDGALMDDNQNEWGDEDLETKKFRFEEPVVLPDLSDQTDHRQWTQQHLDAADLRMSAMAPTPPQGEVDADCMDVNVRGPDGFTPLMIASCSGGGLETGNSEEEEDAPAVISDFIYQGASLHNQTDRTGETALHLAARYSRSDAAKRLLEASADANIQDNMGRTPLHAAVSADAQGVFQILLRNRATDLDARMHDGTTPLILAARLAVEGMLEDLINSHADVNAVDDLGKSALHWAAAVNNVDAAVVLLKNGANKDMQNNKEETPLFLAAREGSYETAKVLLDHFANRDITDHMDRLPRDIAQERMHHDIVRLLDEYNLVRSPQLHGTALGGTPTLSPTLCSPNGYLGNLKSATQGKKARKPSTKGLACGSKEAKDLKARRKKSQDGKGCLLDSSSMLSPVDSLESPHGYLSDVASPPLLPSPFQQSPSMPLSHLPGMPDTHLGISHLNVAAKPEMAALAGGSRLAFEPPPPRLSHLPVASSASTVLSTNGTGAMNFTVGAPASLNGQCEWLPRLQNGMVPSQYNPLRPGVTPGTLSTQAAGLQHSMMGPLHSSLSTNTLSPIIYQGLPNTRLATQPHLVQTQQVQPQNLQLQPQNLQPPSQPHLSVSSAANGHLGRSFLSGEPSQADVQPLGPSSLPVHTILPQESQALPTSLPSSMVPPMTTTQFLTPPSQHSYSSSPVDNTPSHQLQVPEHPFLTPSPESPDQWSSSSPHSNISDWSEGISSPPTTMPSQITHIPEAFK
UniProt Q3TTA7: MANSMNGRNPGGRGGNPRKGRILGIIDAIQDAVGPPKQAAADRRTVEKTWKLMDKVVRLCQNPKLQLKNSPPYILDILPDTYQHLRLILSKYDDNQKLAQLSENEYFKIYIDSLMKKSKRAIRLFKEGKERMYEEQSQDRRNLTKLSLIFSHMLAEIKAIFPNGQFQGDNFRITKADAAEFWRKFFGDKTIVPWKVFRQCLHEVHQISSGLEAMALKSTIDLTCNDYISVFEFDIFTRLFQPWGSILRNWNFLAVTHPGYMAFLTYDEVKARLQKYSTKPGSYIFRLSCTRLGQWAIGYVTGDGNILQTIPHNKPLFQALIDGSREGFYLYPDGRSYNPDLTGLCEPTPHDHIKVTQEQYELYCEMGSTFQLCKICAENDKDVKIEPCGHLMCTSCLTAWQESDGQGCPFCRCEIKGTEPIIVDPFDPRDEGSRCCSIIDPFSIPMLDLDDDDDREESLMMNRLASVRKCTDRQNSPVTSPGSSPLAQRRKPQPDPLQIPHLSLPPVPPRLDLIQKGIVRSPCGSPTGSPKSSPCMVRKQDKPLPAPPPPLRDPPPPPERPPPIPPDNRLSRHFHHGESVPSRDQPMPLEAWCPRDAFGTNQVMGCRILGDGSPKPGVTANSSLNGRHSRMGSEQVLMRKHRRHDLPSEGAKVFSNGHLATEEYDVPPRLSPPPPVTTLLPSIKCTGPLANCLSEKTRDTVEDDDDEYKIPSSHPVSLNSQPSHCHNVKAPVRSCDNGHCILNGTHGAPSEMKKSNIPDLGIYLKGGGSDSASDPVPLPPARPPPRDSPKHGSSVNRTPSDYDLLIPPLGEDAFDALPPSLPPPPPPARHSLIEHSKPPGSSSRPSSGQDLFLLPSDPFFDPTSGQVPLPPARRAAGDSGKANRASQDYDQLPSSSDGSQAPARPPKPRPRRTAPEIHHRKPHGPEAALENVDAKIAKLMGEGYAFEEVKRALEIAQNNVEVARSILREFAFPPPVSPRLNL

Target: Notch1 (endogenous, primary mouse CD8+ T-cells) (mouse (endogenous in primary CD8+ T-cells)) (UniProt Q01705)
Assay: affinity purification with mass spectrometry

Substance: Casitas B-lineage lymphoma b (Cbl-b), endogenous in primary mouse CD8+ T-cells (from UniProt Q3TTA7 1-982) (enzyme)
- binding: binds
